Source: PMC9456514, “Three-Dimensional Envelope and Subunit Interactions of the Plastid-Encoded RNA Polymerase from Sinapis alba” (International Journal of Molecular Sciences, 2022)
These are yes or no findings as the source states them, for the method shown. In cells and extracts the contact can be indirect. A result given as binding can be weak or reduced; the word gives no strength. Values belong to the molecule of their own block, whether it stands above or below them.

Legend:
[1] = molecular target: T1, β’ subunit of the plastid-encoded RNA polymerase (SaRpoC1) (Sinapis alba (endogenous in cotyledon chloroplasts)) (UniProt P46819); assay: cross-linking; PEP-enriched fraction from two independent purifications (replicates 2 and 3), a few micrograms, 100 µM DSBU, 1 h at room temperature, HEPES buffer pH 7.8; trypsin; nanoLC-MS/MS; MeroX 2.0, FDR cut-off 1%, minimum score 30; the partners were together in the native complex fraction
T1 sequence: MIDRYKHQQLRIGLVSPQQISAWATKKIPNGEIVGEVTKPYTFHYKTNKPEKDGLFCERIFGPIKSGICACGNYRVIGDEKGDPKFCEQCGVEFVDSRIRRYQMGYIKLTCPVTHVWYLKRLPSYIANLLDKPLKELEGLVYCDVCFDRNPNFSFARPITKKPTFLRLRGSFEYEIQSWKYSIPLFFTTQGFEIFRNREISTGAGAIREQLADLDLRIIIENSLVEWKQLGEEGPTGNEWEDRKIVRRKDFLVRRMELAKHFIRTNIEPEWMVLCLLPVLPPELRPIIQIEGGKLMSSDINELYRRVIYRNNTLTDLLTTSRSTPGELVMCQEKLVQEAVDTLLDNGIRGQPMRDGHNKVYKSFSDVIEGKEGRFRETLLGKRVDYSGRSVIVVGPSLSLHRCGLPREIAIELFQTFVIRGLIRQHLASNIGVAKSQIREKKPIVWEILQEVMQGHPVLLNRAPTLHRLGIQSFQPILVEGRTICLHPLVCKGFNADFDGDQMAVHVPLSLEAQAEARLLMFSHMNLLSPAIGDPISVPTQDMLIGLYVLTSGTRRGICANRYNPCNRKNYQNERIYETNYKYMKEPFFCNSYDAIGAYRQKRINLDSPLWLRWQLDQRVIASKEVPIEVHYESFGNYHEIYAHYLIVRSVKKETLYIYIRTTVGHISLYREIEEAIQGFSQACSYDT

[2] = molecular target: PAP5/PTAC12 (Sinapis alba (endogenous in cotyledon chloroplasts)); assay: as above

binding [1]: binds
Molecule: PAP5/PTAC12

binding [2]: binds
B1: α subunit of the plastid-encoded RNA polymerase (SaRpoA) (natural protein, UniProt Q9XQN8 1-327, looked up)
chain: MVREKVKVSTRTLQWKCVESRRDSKRLYYGRFILSPLMKGQADTIGIAMARALLGEIEGTCITRAKSENIPHDYSNIVGIQESVHEILMNLNEIVLKSNLYGTRNPFICVQGPGYITARDIILPPSVEIVDNTQHIATLTEPINLCIGLKIERNRGYSLKMSNNFEDRSYPIDAVFMPVQNANHSIHSYGNGNEKQEILFIEIWTNGSLTPKEALYEASRNLINLFIPFLHVEEETFYLENNQHQVTLPVFPFHNKLVNLRQKKKELAFQYIFIDQLELPPRIYNCLKKSNIHTLLDLLNNSQEDLIKMEHFHIEDVKKLLDILEKK
notes: RNA polymerase α subunit, product of the plastid gene rpoA, Sinapis alba
